{
  "source": "paper PMC8379256",
  "about": "“A xanthene derivative, DS20060511, attenuates glucose intolerance by inducing skeletal muscle-specific GLUT4 translocation in mice” (Communications Biology, 2021)",
  "system": "C57BL/6 mice",
  "assay": "Oral glucose tolerance test (GTT) in C57BL/6 mice: blood glucose and plasma insulin",
  "assay_type": "in vivo, mouse",
  "experimental": "Fig. 2 Treatment with DS20060511 decreases the blood glucose levels via inducing GLUT4 translocation and increasing skeletal muscle glucose uptake. a, b Blood glucose levels after treatment with DS20060511 (30 mg kg^−1) in C57BL/6 mice that had received continued access to food (a) and mice that had been denied access to food overnight (b) (n = 8). Values shown are means ± SEM. **P < 0.01 vs. 0 min by one-way ANOVA followed by Dunnett’s test. c Blood glucose and plasma insulin levels during oral GTT in the C57BL/6 mice (n = 5–6). The mice received oral administration of vehicle or DS20060511 at the indicated dose, 15 min prior to glucose administration (1.5 g kg^−1). Values shown are means ± SEM. *P < 0.05, **P < 0.01 vs. vehicle by one-way ANOVA followed by Williams’ test. d [^3H]-2-DG uptake in the soleus muscle, gastrocnemius muscle (Gastro.), heart, and white adipose tissue (WAT) at 60 min during the intraperitoneal GTT in the C57BL/6 mice (n = 3). The mice received oral administration of vehicle or DS20060511 (30 mg kg^−1), 15 min prior to glucose administration (1 g kg^−1 glucose containing [^3H]-2-DG). […] Uncropped blots for e can be found in Supplementary Fig. 6.\nMice that had been denied access to food overnight received the indicated oral dose of DS20060511 or vehicle 15 min prior to the glucose load (1.5 g kg^−1, except for eNOS-knockout mice, which received 3.0 g kg^−1). Then, after the oral glucose load, the blood glucose levels were measured using Glutest Every in samples obtained from the tail vein at the indicated timepoints. Plasma insulin concentrations were also measured with an ELISA kit (Morinaga Institute of Biological Science, Yokohama, Japan) in blood samples collected from the tail vein at the indicated timepoints.",
  "note": "Values joined by “and” are separate entries in the source; they are usually repeats but may differ in a detail not shown here. Identical values can stand only once. This continues a long series; more values of the same kind are listed elsewhere.",
  "data": [
    {"compound": "COc1ccc2c(C)c(C(=O)O)ccc2c1C1C2=C(CC(C)(C)CC2=O)OC2=C1C(=O)CC(C)(C)C2", "note": "[DS20060511]", "values": [
      {"measurement": "Blood glucose", "setting": "3 mg/kg, 0 min", "result": "88 mg/dL and 105 mg/dL"},
      {"measurement": "Blood glucose", "setting": "3 mg/kg, 15 min", "result": "202 mg/dL and 267 mg/dL"},
      {"measurement": "Blood glucose", "setting": "3 mg/kg, 30 min", "result": "158 mg/dL and 204 mg/dL"},
      {"measurement": "Blood glucose", "setting": "3 mg/kg, 60 min", "result": 197, "unit": "mg/dL"},
      {"measurement": "Blood glucose", "setting": "3 mg/kg, 90 min", "result": "159 mg/dL and 129 mg/dL"},
      {"measurement": "Blood glucose", "setting": "3 mg/kg, 120 min", "result": "118 mg/dL and 127 mg/dL"},
      {"measurement": "Blood glucose", "setting": "3 mg/kg, -15 min", "result": "67 mg/dL and 77 mg/dL"},
      {"measurement": "Blood glucose", "setting": "10 mg/kg, 0 min", "result": "101 mg/dL and 103 mg/dL and 104 mg/dL and 97 mg/dL and 91 mg/dL and 92 mg/dL"},
      {"measurement": "Blood glucose", "setting": "10 mg/kg, 15 min", "result": "197 mg/dL and 196 mg/dL and 212 mg/dL and 203 mg/dL and 169 mg/dL and 187 mg/dL"},
      {"measurement": "Blood glucose", "setting": "10 mg/kg, 30 min", "result": "181 mg/dL and 156 mg/dL and 144 mg/dL and 126 mg/dL and 123 mg/dL and 115 mg/dL"},
      {"measurement": "Blood glucose", "setting": "10 mg/kg, 60 min", "result": "124 mg/dL and 154 mg/dL and 150 mg/dL and 115 mg/dL and 174 mg/dL and 121 mg/dL"},
      {"measurement": "Blood glucose", "setting": "10 mg/kg, 90 min", "result": "110 mg/dL and 123 mg/dL and 124 mg/dL and 107 mg/dL and 112 mg/dL and 111 mg/dL"},
      {"measurement": "Blood glucose", "setting": "10 mg/kg, 120 min", "result": "99 mg/dL and 107 mg/dL and 117 mg/dL and 105 mg/dL and 118 mg/dL and 121 mg/dL"},
      {"measurement": "Blood glucose", "setting": "10 mg/kg, -15 min", "result": "82 mg/dL and 94 mg/dL and 75 mg/dL and 81 mg/dL and 79 mg/dL"},
      {"measurement": "Blood glucose", "setting": "30 mg/kg, 0 min", "result": "87 mg/dL and 73 mg/dL and 77 mg/dL and 78 mg/dL and 76 mg/dL"},
      {"measurement": "Blood glucose", "setting": "30 mg/kg, 15 min", "result": "188 mg/dL and 134 mg/dL and 156 mg/dL and 142 mg/dL and 132 mg/dL"},
      {"measurement": "Blood glucose", "setting": "30 mg/kg, 30 min", "result": "130 mg/dL and 118 mg/dL and 107 mg/dL and 114 mg/dL and 104 mg/dL"},
      {"measurement": "Blood glucose", "setting": "30 mg/kg, 60 min", "result": "95 mg/dL and 84 mg/dL and 94 mg/dL and 102 mg/dL and 121 mg/dL"},
      {"measurement": "Blood glucose", "setting": "30 mg/kg, 90 min", "result": "125 mg/dL and 68 mg/dL and 84 mg/dL and 105 mg/dL"},
      {"measurement": "Blood glucose", "setting": "30 mg/kg, 120 min", "result": "80 mg/dL and 75 mg/dL and 89 mg/dL and 99 mg/dL and 103 mg/dL"},
      {"measurement": "Blood glucose", "setting": "30 mg/kg, -15 min", "result": "80 mg/dL and 76 mg/dL and 78 mg/dL and 75 mg/dL and 93 mg/dL"}
    ]}
  ]
}
